{"sequences": {"note": "The chains behind the UniProt entries cited, without tags or fusion partners. Residues count along the entry.", "UniProt P08581, 25-1390": "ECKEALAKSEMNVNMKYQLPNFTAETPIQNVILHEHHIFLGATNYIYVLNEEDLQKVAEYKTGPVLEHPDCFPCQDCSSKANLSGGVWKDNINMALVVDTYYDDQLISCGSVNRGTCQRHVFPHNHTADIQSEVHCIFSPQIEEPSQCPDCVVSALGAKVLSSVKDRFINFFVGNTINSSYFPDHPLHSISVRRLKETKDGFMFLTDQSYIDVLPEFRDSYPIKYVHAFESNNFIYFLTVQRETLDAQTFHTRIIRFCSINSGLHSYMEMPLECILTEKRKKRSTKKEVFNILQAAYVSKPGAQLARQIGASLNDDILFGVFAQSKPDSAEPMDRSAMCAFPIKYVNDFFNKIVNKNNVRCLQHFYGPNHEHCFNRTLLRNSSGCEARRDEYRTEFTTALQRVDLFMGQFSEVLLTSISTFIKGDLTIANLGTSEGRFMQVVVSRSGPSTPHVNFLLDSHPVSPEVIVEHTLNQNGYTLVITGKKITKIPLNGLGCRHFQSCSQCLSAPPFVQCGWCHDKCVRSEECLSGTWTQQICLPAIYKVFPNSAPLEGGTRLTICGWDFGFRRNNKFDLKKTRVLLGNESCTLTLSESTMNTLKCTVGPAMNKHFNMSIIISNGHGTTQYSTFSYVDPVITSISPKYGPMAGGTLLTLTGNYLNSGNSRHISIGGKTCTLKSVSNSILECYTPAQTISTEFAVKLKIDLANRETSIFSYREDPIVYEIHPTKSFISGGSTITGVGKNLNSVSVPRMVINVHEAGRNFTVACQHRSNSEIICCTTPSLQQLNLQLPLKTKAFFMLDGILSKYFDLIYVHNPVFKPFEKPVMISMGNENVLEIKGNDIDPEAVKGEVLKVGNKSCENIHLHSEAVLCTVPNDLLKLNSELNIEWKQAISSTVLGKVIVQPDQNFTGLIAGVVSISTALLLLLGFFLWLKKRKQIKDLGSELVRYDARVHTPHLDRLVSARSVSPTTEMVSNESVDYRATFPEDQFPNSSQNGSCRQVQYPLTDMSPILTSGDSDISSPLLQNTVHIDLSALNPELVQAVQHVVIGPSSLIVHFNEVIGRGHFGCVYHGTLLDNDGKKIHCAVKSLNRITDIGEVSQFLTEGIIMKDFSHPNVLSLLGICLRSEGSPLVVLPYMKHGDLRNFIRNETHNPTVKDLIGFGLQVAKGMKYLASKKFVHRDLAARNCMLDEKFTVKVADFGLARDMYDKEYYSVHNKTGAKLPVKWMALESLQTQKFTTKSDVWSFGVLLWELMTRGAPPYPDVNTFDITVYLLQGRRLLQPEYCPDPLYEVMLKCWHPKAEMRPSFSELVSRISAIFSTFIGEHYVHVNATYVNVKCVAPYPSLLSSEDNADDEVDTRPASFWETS"}, "source": "patent US20170224815A1", "about": "“Method of Preventing and Treating Retinal Microvasculature Inflammation Using C-Met Signaling Pathway Inhibition” (priority 2016, published 2017)", "biological_target": "T1, c-Met receptor (Homo sapiens, UniProt P08581)", "T1 construct": "The C-met receptor is located in many tissues, including the retina; from tissue; host or cells: The treated subject's own tissues (retina, retinal and choroidal vascular endothelium)", "experiment": "Treatment of subject with diabetic macular edema with an oral C-Met tyrosine kinase receptor inhibitor plus intravitreal dexamethasone", "type": "in vivo", "conditions": "at the 6 month interval; dexamethasone 0.7 mg intravitreal implant + C-met receptor tyrosine kinase inhibitor 360 mg by mouth twice daily, seven-day courses at start and at 3 months", "note": "At least one compound was matched to its structure with a doubt left."}
{"smiles": "C[C@@H]1C[C@H]2[C@@H]3CCC4=CC(=O)C=C[C@]4(C)[C@@]3(F)[C@@H](O)C[C@]2(C)[C@@]1(O)C(=O)CO", "note": "[dexamethasone]", "values": [{"measurement": "diabetic macular edema, clinical outcome", "result": "resolution of diabetic macular edema"}]}
